The target in the experiment is T1, flag tagged DAB2IP (UniProt Q5VWQ8).
T1 sequence: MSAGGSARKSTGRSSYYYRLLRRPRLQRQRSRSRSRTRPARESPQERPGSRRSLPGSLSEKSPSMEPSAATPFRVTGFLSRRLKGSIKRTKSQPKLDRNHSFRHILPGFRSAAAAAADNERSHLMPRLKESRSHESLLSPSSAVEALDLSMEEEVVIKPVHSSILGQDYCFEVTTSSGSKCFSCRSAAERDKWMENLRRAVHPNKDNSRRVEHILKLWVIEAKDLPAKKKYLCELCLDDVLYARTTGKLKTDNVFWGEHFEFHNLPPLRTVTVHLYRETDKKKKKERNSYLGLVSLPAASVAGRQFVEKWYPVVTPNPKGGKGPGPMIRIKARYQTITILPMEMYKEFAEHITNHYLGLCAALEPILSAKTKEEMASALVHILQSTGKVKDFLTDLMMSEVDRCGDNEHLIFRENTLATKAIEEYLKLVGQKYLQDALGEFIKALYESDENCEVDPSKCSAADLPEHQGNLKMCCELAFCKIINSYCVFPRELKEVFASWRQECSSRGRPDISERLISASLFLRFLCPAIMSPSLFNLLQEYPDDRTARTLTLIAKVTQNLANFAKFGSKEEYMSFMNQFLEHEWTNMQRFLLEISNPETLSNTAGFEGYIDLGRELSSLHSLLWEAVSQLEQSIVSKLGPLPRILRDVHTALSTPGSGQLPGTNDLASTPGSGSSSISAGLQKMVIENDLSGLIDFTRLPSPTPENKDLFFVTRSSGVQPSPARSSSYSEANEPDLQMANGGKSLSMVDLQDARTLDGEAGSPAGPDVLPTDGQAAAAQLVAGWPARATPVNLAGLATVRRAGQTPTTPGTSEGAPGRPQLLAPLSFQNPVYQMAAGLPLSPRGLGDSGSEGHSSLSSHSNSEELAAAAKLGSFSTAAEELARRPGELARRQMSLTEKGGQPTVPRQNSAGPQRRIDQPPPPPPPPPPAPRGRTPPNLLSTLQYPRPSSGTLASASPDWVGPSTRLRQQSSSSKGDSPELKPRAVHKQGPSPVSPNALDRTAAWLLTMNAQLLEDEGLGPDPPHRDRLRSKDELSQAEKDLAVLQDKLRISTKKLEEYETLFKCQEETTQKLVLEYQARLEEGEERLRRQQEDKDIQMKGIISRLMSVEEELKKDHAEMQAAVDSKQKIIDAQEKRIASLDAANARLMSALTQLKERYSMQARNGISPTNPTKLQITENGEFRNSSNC
Briefly: affinity purification with mass spectrometry; cells transfected with flag tagged DAB2IP lysed, immunoprecipitated with anti-flag antibody; bands cut from Coomassie stained SDS-PAGE gel, Orbitrap Elite LC-MS/MS.

Amino acid sequences for entries named in this document (tags omitted).
UniProt Q92769: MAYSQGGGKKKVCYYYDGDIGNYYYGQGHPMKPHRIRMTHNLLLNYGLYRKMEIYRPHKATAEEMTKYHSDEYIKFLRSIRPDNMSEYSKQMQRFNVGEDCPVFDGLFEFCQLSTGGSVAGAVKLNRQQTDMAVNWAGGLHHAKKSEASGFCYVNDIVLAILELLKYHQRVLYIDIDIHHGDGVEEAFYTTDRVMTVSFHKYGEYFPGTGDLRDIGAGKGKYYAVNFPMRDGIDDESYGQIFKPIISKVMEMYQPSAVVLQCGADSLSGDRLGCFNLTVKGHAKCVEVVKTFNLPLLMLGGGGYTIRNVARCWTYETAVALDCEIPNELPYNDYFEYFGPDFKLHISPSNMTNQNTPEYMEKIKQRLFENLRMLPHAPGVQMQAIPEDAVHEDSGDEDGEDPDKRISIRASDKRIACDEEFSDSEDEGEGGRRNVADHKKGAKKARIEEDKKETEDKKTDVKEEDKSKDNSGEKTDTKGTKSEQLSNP

The text below walks through data of paper PMC5620150.

Results are given in words; binding and its absence hold for the method and conditions named. In cells and extracts the contact can be indirect. These calls come from enrichment with a bait or labelling near it, and not all partners need be listed. Tags and fused reporters may be left off the sequences shown.

In the case of “histone deacetylase (HDAC2) (from UniProt Q92769 1-488) (enzyme)”, the binding result is “binds”.
